These are yes or no findings as the source states them, for the method shown. Binding seen in cells or lysates may run through a third protein. Some binding calls cover weakened binding; strength is not graded here.

Amino acid sequences for entries named in this document (tags omitted).
UniProt P02831: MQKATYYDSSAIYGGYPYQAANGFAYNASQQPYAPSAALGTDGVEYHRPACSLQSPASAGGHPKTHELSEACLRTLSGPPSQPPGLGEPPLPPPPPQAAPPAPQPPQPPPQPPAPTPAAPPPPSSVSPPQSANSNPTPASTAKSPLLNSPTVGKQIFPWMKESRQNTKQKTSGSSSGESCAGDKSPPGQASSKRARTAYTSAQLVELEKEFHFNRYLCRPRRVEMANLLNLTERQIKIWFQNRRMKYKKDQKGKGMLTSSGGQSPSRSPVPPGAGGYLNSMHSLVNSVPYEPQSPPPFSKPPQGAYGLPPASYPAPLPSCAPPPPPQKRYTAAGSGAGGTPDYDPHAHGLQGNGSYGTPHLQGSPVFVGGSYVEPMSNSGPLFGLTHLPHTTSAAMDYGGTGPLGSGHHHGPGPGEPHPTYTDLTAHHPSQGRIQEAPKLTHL
UniProt P31245: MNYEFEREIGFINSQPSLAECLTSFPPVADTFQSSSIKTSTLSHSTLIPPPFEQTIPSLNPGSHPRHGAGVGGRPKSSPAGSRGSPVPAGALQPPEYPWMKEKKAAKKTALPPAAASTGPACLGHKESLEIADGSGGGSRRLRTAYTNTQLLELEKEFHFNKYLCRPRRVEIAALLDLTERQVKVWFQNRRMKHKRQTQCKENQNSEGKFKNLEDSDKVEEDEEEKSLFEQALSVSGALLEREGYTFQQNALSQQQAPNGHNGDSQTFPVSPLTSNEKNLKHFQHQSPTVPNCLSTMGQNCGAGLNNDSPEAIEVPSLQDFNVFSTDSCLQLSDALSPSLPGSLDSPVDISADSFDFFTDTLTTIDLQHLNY

We go through one substance from PMC8707757.

This test addresses Hoxa3-FLAG (UniProt P02831). Kind of test: co-IP; HEK293T cells co-transfected with HA- and FLAG-tagged expression vectors, with empty pcDNA3 or with MEIS (Meis1) and PBX (Pbx1) vectors; proteins collected 48 h after transfection; anti-FLAG M2 antibody on Dynabeads Protein G; western blot of input and CoIP. On the technique in general: A western blot detects proteins with antibodies after separation by electrophoresis.

Regarding Hoxa2-HA (from UniProt P31245 1-372), the binding entry is given as “binds”.
